{"source": "the NIST ThermoML archive (doi:10.1016/j.jct.2014.05.003)", "experiment": "relative permittivity at zero frequency (dimensionless); wn = mass fraction of the nth substance listed", "conditions": "298.15 K, 100 kPa, Liquid, Coaxial cylinder capacitor", "note": "Numbers after ± are expanded uncertainties."}
{"smiles": "CC(=O)N(C)C", "note": "[N,N-dimethylethanamide] + O", "values": [{"measurement": "relative permittivity at zero frequency", "setting": "w1 = 0.1", "result": "76.5 ± 0.2"}, {"measurement": "relative permittivity at zero frequency", "setting": "w1 = 0.2", "result": "74.2 ± 0.2"}, {"measurement": "relative permittivity at zero frequency", "setting": "w1 = 0.3", "result": "71.7 ± 0.2"}]}
